# According to patent US5811465A, “Composition, device, and method for electrotransport agent delivery” (priority 1997, dated 1998):
# At least one compound was matched to its structure with a doubt left.
# Test: Electrical conductivity of human cadaver skin during electrotransport with permeation enhancer (Example 1)
# Conditions: 10 mM enhancer, without ethanol; pH 7.20 (DMDDA), 6.90 (DDPDCl); control = 1.00; 100 μA/cm^2, about 32° C.
# Experimental: Human cadaver skin was prepared by first removing about 1 mm thick skin samples with an electric dermatome in the form of strips. The skin strips were placed in polyethylene bags, sealed and placed in a refrigerator at about 4° C. for temporary storage. Prior to use in the electrotransport cell, the skin strips were placed in one-liter beakers containing water at 60° C. for about 90 seconds with gentle stirring. Then, the skin strips were removed and placed onto the absorbent side of a piece of BENCHKOTE™ fabric with the dermis side down. Using flat tipped tweezers to retain the dermis, the epidermis was removed from each strip with a round-tip spatula. Each epidermis, stratum comeum side up, was transferred to a PYREX™ glass tray which was filled with water. […]
# Dulbecco's phosphate buffered saline (about 0.15M NaCl with minor amounts of other ions, pH 7.0) was placed in the anodic receptor compartment 44. The skin resistance was calculated from the voltages applied by the galvanostat according to Ohm's law, ie, Rskin =ΔV/i, where ΔV is the potential applied by the galvanostat, and i is the applied current, 126 microamps.
# The system was maintained at about 32° C. by a Haake Model D1 heating block/water bath. The cell voltage was monitored over the entire procedure, and then averaged. The skin resistance was calculated from Ohm's law as described above using the measured ΔV. […]
structure (smiles),measurement,value
"CCCCCCCCCCCC[n+]1ccccc1 [DDPDCl, dodecyl-pyridinium chloride]",Normalized Skin Conductivity (after 5 hrs),1.58
